Four molecules from paper PMC2288612, “The Mre11 protein interacts with both Rad50 and the HerA bipolar helicase and is recruited to DNA following gamma irradiation in the archaeon Sulfolobus acidocaldarius” (BMC Molecular Biology, 2008) can be followed below.

These are yes or no findings as the source states them, for the method shown. For some of these results: Binding seen in cells or lysates may run through a third protein. Some entries that bind do so weakly or less than the wild type.

The target of assay [1] is T1, Rad50 protein of Sulfolobus acidocaldarius (endogenous) (S. acidocaldarius (endogenous in S. acidocaldarius DSM 639)) (UniProt O33600).
T1 sequence: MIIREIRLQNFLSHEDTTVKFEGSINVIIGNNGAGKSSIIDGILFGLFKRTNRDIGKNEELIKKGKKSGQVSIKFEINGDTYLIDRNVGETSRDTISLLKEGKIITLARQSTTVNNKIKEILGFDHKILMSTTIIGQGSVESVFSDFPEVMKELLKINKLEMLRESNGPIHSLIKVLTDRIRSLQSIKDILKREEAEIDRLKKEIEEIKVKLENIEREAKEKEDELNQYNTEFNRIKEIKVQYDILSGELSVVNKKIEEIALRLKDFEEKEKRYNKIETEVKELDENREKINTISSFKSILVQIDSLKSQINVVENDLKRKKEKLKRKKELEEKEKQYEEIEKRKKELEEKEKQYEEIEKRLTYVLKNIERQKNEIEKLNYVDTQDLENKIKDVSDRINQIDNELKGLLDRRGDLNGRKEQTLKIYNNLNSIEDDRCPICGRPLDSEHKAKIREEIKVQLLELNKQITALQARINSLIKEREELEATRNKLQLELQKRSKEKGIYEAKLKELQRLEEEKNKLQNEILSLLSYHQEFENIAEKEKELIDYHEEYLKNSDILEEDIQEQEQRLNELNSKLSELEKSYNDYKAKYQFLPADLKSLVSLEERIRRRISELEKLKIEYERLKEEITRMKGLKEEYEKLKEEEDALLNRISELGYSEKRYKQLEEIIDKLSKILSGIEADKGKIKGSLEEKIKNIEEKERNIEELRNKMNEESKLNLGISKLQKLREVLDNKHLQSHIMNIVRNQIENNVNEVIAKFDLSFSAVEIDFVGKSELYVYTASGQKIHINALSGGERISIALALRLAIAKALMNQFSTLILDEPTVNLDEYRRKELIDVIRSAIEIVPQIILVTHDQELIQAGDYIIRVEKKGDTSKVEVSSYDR
Nature of the assay: co-IP; anti-Rad50 purified IgGs and protein A-sepharose on extracts of exponentially growing S. acidocaldarius cells (total extract, soluble fraction, chromosomal-enriched fraction treated with DNase I; irradiated or non-irradiated cells); 4°C; IP buffer 20 mM Hepes pH 7.5, 100 mM NaCl, 15 mM MgCl2, 5 mM beta-mercaptoethanol; immunoblot. A general note: In western blotting, separated proteins are transferred to a membrane and probed.

Assay [2] deals with T2, Rad50 recombinant protein (Sulfolobus acidocaldarius) (S. acidocaldarius) (UniProt O33600).
T2 sequence: T1 sequence
Briefly: co-IP; anti-Rad50 purified IgGs and protein A-sepharose on a mixture of purified recombinant proteins (60 nM Rad50, Mre11 and NurA, 300 nM HerA) in IP buffer (20 mM Hepes pH 7.5, 100 mM NaCl, 15 mM MgCl2, 5 mM beta-mercaptoethanol); 4°C; immunoblot; both purified.

B1: HerA recombinant protein (Sulfolobus acidocaldarius) (natural protein, S. acidocaldarius, UniProt F2Z5Z6 1-495, looked up)
chain: MTIGYIIGSATINEATAILEQKIRAGYYVILEYDGDKILGLITNVYTGSPLLDDNLNDVKFVQRIKQLEANKIPFFIKARIKLLCKLDGKFTQPDLPPVAGTPVRLASDEELSTVFSAGDVRIGKLIGSNVEVKIRLNPLSRHLAILAATGSGKSNTVAILSQRLVEIGGSILIFDYHGEYYDSTLPNLNIIEPKLNPLYLSVNEFATLLEIRENANIQYRIIRRTFNQLKEEINNEIKEGKTSLAELNSNFFERLKVKIEEEGRNEKRKESKDEVLNKVEDFAERYSDIIDITFGDVINKIKLGKINVVNLSSLDEDAIDAIVAHYLRRILTSRKENKIKKDSGLKFPILTVVEEAHVLLSKDTNTLTKKWAGRIAREGRKFGVGLIIVSQRPKGLDENILSQMTNKIILKIVEPSDKKYVLETSDNLSEDLADGLSSLDTGEAIIIGNVVKLPTIIKIDKFEGKLSGSDPNLTEEWKRAKEEEIVHSDVSDWG
notes: HerA bipolar DNA helicase, Sulfolobus acidocaldarius, purified recombinant protein; also called HerA bipolar helicase
Regarding B1, the binding result in assay [1] is “binds”.

B2: NurA nuclease of Sulfolobus acidocaldarius (endogenous) (protein, UniProt F2Z6F6 1-332)
chain: MIDKAYEELIKMKEKIMRDSYTIHKELSESVESILNELWINYSPESVEHSKKLLAIDGGMWVKETRQGVIFIVNAKAIVFEGINEINSEGKVLVHIFSPGNYAKERIELLMQLLELQLALKLVENVDYVLLDGSFSKKLGRHKSELKVDLLDDIVSIDKILSLEEKDEDNMLRFLIAENQLVLSELVSRYKDKLLFISKNSKSSDLFKQAYSDITILELFTQNCGYSKILEKKIDENYILSRKASKLLSGLNYYFTNLRLEPSERLFRLDFFNADKIFEYLKVLKPVSLKGYPYPLIKVHKDVRVGKEDRERIYSILEMKRKDISWWPSQFY
B2: in assay [1], the binding entry is reported as “no binding”.

B3: NurA recombinant protein (Sulfolobus acidocaldarius) (protein, UniProt F2Z6F6 1-332)
chain: B2 chain
B3: the binding result in assay [2] is recorded as “no binding (tested: 60 nM NurA, 60 nM Rad50)”.

B4: Mre11 recombinant protein (Sulfolobus acidocaldarius) (natural protein, S. acidocaldarius, UniProt Q8NKQ0 1-382, looked up)
chain: MQLLHISDTHLGKRQYNLESREKDVYDTFTQLIDIAINEHVKAVIHTGDLFDVNNPPNRAKLHAIKELKRLKDHNIPFICIAGDHDSPKRKEEIYPQRILEEFNLIKILQKIDNRVKLENVEVYGISHISNVSVNDLKEQLSKVKPETRKSILMLHQGIRTYLPYQGAWQIELSDLPKGFSLYAVGHLHSRRKDYLDGGALIEIAGSPDIMREEEIEDYQKSKKGATLIDMSGDLPSINYINVNIRDQLVLDINVDKIEQSIESVIQKLKENVKNDKKPILHIELEGTVPIRKDVLMTKLQALRDYVEHYRIYKNNIVSIKEENLKTKLKTTYSSLNDIIADYLKGIGYTDEETKIIIDIINEEDEKKVEELLKKFAGVEDK
notes: Mre11, Sulfolobus acidocaldarius, purified recombinant protein; source: recombinant, purified (Ni-NTA, gel filtration through Sephadex 200)
On to B4, for which the binding result in assay [1] is on record as “binds”.
